Binding data for one molecule are collected here from article doi:10.1101/2025.03.26.644761 (bioRxiv, 2025).

In the experiment the target is His6-M45_(1–90)-mCherry, AAAA mutant A (murine cytomegalovirus (MCMV)) (UniProt Q06A28). Nature of the experiment: single molecule fluorescence.

These are yes or no findings as the source states them, for the method shown. Some binding calls cover weakened binding; strength is not graded here. Where a sequence is shown, tags or fusion partners need not be part of it.

B1: His6-M45_(1–90)-mCherry, AAAA mutant A (domain or fragment, murine cytomegalovirus (MCMV), UniProt Q06A28 1-90, looked up)
chain: MDRQPKVYSDPDNGFFFLDVPMPDDGQGGQQTATTAAGGAFGVGGGHSVPYVAAAAGVSGIQIGNHNAMSIASCWSPSYTDRRRRSYPKT
Turning to B1, the binding result is “binds weakly”.
